# Results of single-concentration screens

The chains behind the UniProt entries cited, without tags or fusion partners. Residues count along the entry.
UniProt A4I591, 1-473: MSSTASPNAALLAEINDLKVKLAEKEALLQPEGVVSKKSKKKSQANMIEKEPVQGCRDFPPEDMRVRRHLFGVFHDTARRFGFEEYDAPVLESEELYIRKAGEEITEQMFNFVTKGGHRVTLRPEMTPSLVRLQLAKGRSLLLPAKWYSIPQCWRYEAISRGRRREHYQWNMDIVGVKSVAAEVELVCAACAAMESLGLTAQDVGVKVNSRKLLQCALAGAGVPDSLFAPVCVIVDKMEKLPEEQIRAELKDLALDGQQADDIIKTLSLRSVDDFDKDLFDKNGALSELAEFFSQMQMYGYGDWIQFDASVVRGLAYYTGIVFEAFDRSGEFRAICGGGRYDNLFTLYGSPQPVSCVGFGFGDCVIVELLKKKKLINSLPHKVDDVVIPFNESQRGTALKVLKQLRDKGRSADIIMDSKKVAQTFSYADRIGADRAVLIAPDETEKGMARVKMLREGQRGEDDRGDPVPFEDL
UniProt I6X8D2, whole entry: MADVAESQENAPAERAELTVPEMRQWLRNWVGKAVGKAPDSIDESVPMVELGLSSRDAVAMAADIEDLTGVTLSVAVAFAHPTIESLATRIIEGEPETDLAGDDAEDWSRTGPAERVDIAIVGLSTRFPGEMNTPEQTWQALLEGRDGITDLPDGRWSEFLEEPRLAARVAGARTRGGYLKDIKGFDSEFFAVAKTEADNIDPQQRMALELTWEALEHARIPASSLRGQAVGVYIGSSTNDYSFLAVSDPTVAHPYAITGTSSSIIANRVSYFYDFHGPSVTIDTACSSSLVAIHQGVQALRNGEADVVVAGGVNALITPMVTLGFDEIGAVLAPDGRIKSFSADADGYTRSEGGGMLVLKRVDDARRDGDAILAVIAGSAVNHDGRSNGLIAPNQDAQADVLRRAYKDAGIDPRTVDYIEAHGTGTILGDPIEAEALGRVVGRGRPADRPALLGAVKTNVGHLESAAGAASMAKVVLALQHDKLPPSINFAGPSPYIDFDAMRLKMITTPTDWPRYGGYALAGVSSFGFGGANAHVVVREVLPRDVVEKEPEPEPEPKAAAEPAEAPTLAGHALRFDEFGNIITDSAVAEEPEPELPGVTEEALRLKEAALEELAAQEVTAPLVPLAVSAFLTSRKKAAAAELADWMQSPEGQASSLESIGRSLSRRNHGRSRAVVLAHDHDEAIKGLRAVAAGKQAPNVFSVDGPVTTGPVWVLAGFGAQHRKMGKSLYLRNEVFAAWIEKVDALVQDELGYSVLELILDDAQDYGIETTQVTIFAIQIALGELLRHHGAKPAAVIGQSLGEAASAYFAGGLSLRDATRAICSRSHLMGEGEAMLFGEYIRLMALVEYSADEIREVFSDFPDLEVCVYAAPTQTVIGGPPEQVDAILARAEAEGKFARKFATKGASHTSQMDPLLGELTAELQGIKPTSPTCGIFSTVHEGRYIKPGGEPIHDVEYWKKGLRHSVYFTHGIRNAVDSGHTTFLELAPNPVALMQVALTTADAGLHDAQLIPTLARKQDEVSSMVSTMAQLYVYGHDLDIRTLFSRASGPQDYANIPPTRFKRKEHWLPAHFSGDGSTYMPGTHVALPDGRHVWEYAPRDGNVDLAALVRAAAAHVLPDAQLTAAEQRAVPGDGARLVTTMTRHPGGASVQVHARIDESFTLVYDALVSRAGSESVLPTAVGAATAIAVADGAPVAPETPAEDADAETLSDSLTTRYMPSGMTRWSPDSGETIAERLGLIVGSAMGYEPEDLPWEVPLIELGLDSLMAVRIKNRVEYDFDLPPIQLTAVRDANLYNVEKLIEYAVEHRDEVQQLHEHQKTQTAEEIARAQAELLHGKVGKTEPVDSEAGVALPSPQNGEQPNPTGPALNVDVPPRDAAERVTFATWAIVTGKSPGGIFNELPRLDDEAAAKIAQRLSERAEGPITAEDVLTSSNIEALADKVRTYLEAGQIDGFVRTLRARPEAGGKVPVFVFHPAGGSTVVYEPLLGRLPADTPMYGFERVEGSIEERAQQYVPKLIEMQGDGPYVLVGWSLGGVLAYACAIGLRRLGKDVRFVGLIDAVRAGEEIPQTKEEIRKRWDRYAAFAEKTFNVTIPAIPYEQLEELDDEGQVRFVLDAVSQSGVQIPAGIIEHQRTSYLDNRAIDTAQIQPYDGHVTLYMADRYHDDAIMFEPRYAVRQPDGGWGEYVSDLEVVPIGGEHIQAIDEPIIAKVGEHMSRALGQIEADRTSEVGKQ

Data taken from ChEMBL document CHEMBL3988442, “University of Dundee, Small-Polar-MMV Screening Library” (2021).

Leishmania in macrophages: 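Cell assay of Leishmania donovani living inside macrophages; the read-out is not stated. Compounds at 30 µM. The record gives no direction; compounds that gave an IC50 in retests scored well above the rest, so higher reads as stronger inhibition. Size under these conditions: about 69,000 compounds, about 1,000 of them at 50% or above in at least one test.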
LiHisRS: 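Histidine-tRNA ligase, Leishmania infantum (UniProt A4I591). Enzyme assay of histidyl-tRNA synthetase; the read-out is not stated. Compounds at 30 µM. Direction is inferred from retests: higher values go with stronger inhibition. The assay is labelled LdHisRS but filed under L. infantum. Size under these conditions: about 69,000 compounds, about 410 of them at 50% or above in at least one test.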
Pks13 thioesterase: 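Polyketide synthase Pks13, Mycobacterium tuberculosis (UniProt I6X8D2). Enzyme assay of the thioesterase domain of polyketide synthase 13; the read-out is not stated. Compounds at 30 µM. Higher reads as stronger inhibition (inferred from which compounds were picked for retests). About 67,000 compounds were tested under these conditions; 0.46% (about 300) showed 50% or more at least once.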

Results are given as percent effect. The record does not define 0% and 100%; most values in the screen are far below 50% and negative numbers occur (in some assays of this library far below -100). This is an unselected part of the compounds tested. Two or more numbers in one place are separate tests of the same structure; such repeats can differ widely. A dash means the value is not listed here; it may have been measured.

For CN(CCCc1nccn1C)C(=O)C1CCN(C(=O)C2CC2)CC1 the result was Leishmania in macrophages: 12.81%; LiHisRS: 11.86%; Pks13 thioesterase: -14.43%.
For CCn1c(C)nnc1CN(C)C1CCN(Cc2nccn2C)C1 (stereo not drawn) the result was Leishmania in macrophages: -2.901%; LiHisRS: 3.774%; Pks13 thioesterase: -11.82%.
For [H][C@@]12CN(c3ccc(C)nn3)C[C@@H](C(=O)NCc3ccco3)[C@]1([H])CCO2 the result was Leishmania in macrophages: 9.209%.
For Fc1ccc2[nH]c3c(c2c1)CCN1C(c2ccccn2)N2CCC31CC2 (stereo not drawn) the result was Leishmania in macrophages: 22.17%; LiHisRS: 11.35%; Pks13 thioesterase: -8.54%.
For O=C(O)C(F)(F)F.[H][C@@]12CCN(c3cccc(F)c3)C[C@@]1([H])O[C@H](C(=O)N1CCCC1)C2 the result was Leishmania in macrophages: 14.8%.
For Cc1cnn(CC2CCCCN2Cc2nccn2CC(F)(F)F)c1 (stereo not drawn) the result was Leishmania in macrophages: 15.04%; LiHisRS: 5.128%; Pks13 thioesterase: -16.86%.
For [H][C@@]12CCN(C(C)=O)C[C@]1([H])CCN(C1CC1)C(=O)C2 the result was Leishmania in macrophages: -10.14%.
For CN1CCNC(Cc2ccc(-c3ccncc3)cc2)C1=O.Cl (stereo not drawn) the result was Leishmania in macrophages: 4.866% & -5.853%.
For COc1ccc(F)cc1CN1CCC(O)(CN2CCCCC2)C1 (stereo not drawn) the result was Leishmania in macrophages: 17.37%; LiHisRS: 19.35%; Pks13 thioesterase: -10.16%.
For O=C(NCCCn1ccnc1)c1cccnc1OCC(F)(F)F the result was Leishmania in macrophages: 31.84%; LiHisRS: 15.84%; Pks13 thioesterase: -2.544%.
For CCc1ncc(C(=O)N2CC[C@@H]3CC[C@H](C2)N3C)cn1 the result was LiHisRS: 28.92%; Pks13 thioesterase: -10%.
For CC(=O)N1CCC(NC(=O)c2cc(Cl)ccc2-n2cnnn2)CC1 the result was Leishmania in macrophages: 17.59%; LiHisRS: 24.24%; Pks13 thioesterase: -14.83%.
For [H][C@]12CCN(C(=O)Cc3cccs3)C[C@@]1([H])OCCN(S(C)(=O)=O)C2 the result was Leishmania in macrophages: 26.59%.
For CN(CC1(CO)CCCC1)[C@@H]1c2ccccc2C2(CCNCC2)[C@H]1O the result was Leishmania in macrophages: -37.08%; LiHisRS: 5.66%; Pks13 thioesterase: 9.903%.
For O=S(=O)(C1CC1)N1CCc2c(CN3CCOCC3)cncc2C1 the result was Leishmania in macrophages: 11.79%; LiHisRS: 15.09%; Pks13 thioesterase: -11.14%.
For c1cc(N2CCCC2c2cnccn2)ncn1 (stereo not drawn) the result was Leishmania in macrophages: 21.52%; LiHisRS: 12%; Pks13 thioesterase: 2.02%.
For CC(C)CCNC(=O)c1c(-n2cnnn2)sc2c1CCCC2 the result was Leishmania in macrophages: -26.12%; LiHisRS: 0%; Pks13 thioesterase: -3.626%.
For CC(C)N(C)S(=O)(=O)c1ccc2c(c1)CCN(C(=O)c1cccnn1)C2 the result was Leishmania in macrophages: -50.33%; LiHisRS: 27.71%; Pks13 thioesterase: 4.826%.
For Cc1nc(CCC(=O)NC2CCC2)cc(C2CCNCC2)n1 the result was Leishmania in macrophages: -12.78%; LiHisRS: 9.489%; Pks13 thioesterase: -11.09%.

2 of the entries, repeated:

SMILES,Leishmania in macrophages,LiHisRS,Pks13 thioesterase
CN(CCCc1nccn1C)C(=O)C1CCN(C(=O)C2CC2)CC1,12.81,11.86,-14.43
CCc1ncc(C(=O)N2CC[C@@H]3CC[C@H](C2)N3C)cn1,-,28.92,-10